The other results are listed elsewhere or left out. Further columns of the screen follow, without active or inactive calls. Most of these compounds were active or inconclusive in the main read-out, so they are no random draw. The note in brackets gives the kind of curve behind each potency; many fits are weak.
Assay: qHTS Assay for Identifying the Cell-Membrane Permeable IMPase Inhibitors
Settings: CHO-M1 cells, IP1 accumulation, HTRF TR-FRET ratio; measured here: donor channel 620 nm AC50

Row | Structure (SMILES) | AC50
1 | Cc1ccccc1Nc1c(-c2cccc(N(C)C)c2)nc2ccc(Br)cn12 | 0.0316 µM [falling, full curve, poor fit]
2 | COc1cccc(-c2nn(C)c3sc(C(=O)NCc4ccccn4)cc23)c1 | 0.141 µM [falling, full curve, poor fit]
3 | Cc1ccc(SCc2cc(-c3ccc(Cl)cc3)on2)cc1 | 0.00398 µM [rising, full curve, poor fit]
4 | Cc1noc(C)c1COc1cccc(C(=O)N2CCN(C/C=C/c3ccccc3)CC2)c1 | 0.631 µM [falling, full curve]
5 | COc1ccc(-n2c(Cc3cccn3C)nnc2SCC(=O)NCc2ccc(F)cc2)cc1 | 20 µM [rising, partial curve]
6 | CCOC(=O)C(C)(C)Sc1nc2c(cnn2-c2ccc(C)cc2)c(=O)[nH]1 | 0.2 µM [falling, full curve]
7 | CC1=C(C(=O)OC(C)C)C(c2ccsc2)NC(=O)N1C (configuration not stated) | 0.1 µM [falling, partial curve, poor fit]
8 | CC(Sc1nc(N2CCOCC2)c2c(c1C#N)CC(C)(C)OC2)C(=O)Nc1ccccc1 (configuration not stated) | 31.6 µM [rising, single point]
9 | COc1ccc(NC(=O)CSc2nccn2-c2ccccc2)cc1 | 3.98 µM [rising, single point]
10 | CCCNC(=O)NC(=O)COc1ccc2oc3ccccc3c2c1 | 0.0316 µM [falling, partial curve, poor fit]
11 | Cc1cc2c(N)cccc2nn1 | 10 µM [falling, partial curve]
12 | CCOC(=O)c1sc(C)c(C(=O)NC2CCCCC2)c1N | 3.98 µM [rising, full curve, poor fit]
13 | Cc1ccc(-n2cc(C(=O)c3ccc(F)cc3)nn2)cc1Cl | 20 µM [rising, single point]
14 | Nc1ccc(-c2nc3ccc(C(=O)O)cc3s2)cc1 | 12.6 µM [rising, single point]
15 | CCCCn1c(=O)c(CCC(=O)OC(C)C(=O)Nc2cccc(Cl)c2Cl)nc2ccccc21 (configuration not stated) | 0.501 µM [falling, full curve]
16 | CCOc1ccc(C(=O)/C=C/c2ccccc2C(F)(F)F)cc1 | 3.98 µM [rising, partial curve]
17 | CCn1c(C)cc(=S)c2ccccc21 | 10 µM [rising, single point]
18 | CCCCc1cc(=O)oc2c(CN(C)C)c(O)ccc12 | 31.6 µM [rising, single point]
19 | Cc1ccc(CNc2cnn(C34CC5CC(CC(C5)C3)C4)c(=O)c2Cl)cc1 | 20 µM [falling, single point]
20 | O=C(CSc1nnc(CNc2ccc(F)cc2)n1Cc1ccccc1)NCc1ccccc1 | 0.2 µM [rising, partial curve]
21 | COC(=O)C1=C(C)OC(N)=C(C#N)C1c1ccco1 (configuration not stated) | 1 µM [falling, full curve]
22 | CCn1c(C)c(CCC(=O)O)c(=O)n2nc(-c3ccccc3OC)cc12 | 3.16 µM [rising, single point]
23 | Cc1cc(OCCn2cc(C(=O)c3cccs3)c3ccccc32)ccc1Cl | 0.00316 µM [rising, full curve, poor fit]

Row | Structure (SMILES) | AC50
24 | Cc1noc(C)c1S(=O)(=O)N1CCC(C(=O)N2CCC(C)CC2)CC1 | 25.1 µM [falling, single point]
25 | Cc1ccc(NC(=O)CSc2nnc(CNC(=O)C34CC5CC(CC(C5)C3)C4)n2-c2ccc(F)cc2)cc1 | 14.1 µM [falling, partial curve, poor fit]
26 | CC1CCN(S(=O)(=O)c2ccc(Cl)cc2)CC1 | 3.16 µM [rising, single point]
27 | COc1ccccc1C(=O)N1CCC(C(=O)c2ccc(F)cc2)CC1 | 2.51 µM [rising, full curve]
28 | O=C(CC1(O)C(=O)Nc2cc(Cl)cc(Cl)c21)c1ccccc1O (configuration not stated) | 7.94 µM [falling, partial curve]
29 | O=C(O)COc1ccc(-c2nccc(-c3cccs3)n2)cc1 | 15.8 µM [rising, single point]
30 | O=C(Cc1ccc(-n2cnnn2)cc1)NC12CC3CC(CC(C3)C1)C2 | 0.355 µM [rising, partial curve, poor fit]
31 | CCN(CC)C(=O)CSc1nc(-c2ccco2)cc(C(F)(F)F)c1C#N | 2.51 µM [falling, single point]
32 | COCc1cc(C(C)=O)ccc1OC | 1 µM [falling, single point]
33 | Cc1ccc2oc(-c3cccc(NC(=O)c4cc(-n5cnnc5)ccc4Cl)c3)nc2c1 | 25.1 µM [rising, single point]
34 | O=c1c2cc(Br)cc(Br)c2oc2nc3n(c(=O)c12)CCCS3 | 31.6 µM [rising, single point]
35 | O=C(COC(=O)CNC(=O)c1ccccc1)Nc1cccc(Br)c1 | 0.0112 µM [falling, full curve, poor fit]
36 | COC(=O)c1sc(-c2ccccc2)cc1NC(=O)c1ccc(F)cc1 | 2.51 µM [rising, full curve, poor fit]
37 | O=C(OCC(=O)N1CCN(C(=O)c2ccco2)CC1)c1ccccc1OCc1ccccc1 | 7.94 µM [falling, partial curve, poor fit]
38 | COc1cc(OC)cc(C(=O)N2CCCc3ccccc32)c1 | 5.01 µM [rising, partial curve]
39 | COc1cc(CNc2ccc3[nH]c(=O)[nH]c3c2)ccc1OCC(=O)NC(C)(C)C | 7.94 µM [falling, single point]
40 | CCOC(=O)c1c(C#N)cnn1-c1ccc(C)cc1 | 0.0251 µM [falling, single point]
41 | O=C1OC(N2CCN(C/C=C/c3ccccc3)CC2)c2ccccc21 (configuration not stated) | 0.0398 µM [rising, full curve, poor fit]
42 | Cc1cc(C)n2nc(SCC(=O)Nc3ccc(O)cc3)nc2n1 | 0.178 µM [falling, full curve, poor fit]
43 | CCc1ccccc1NC(=S)NCc1ccc2c(c1)OCO2 | 6.31 µM [rising, single point]
44 | Cc1ccc2c3c([nH]c2c1C)-c1nonc1CC3 | 3.16 µM [falling, single point]
45 | Cc1ccc(C(C)C)c(OCCNC(=S)Nc2cccc3ccccc23)c1 | 1.58 µM [falling, partial curve]
46 | N#Cc1cc(Sc2ccccn2)c(Sc2ccccn2)cc1C#N | 31.6 µM [rising, single point]

Row | Structure (SMILES) | AC50
47 | COc1cccc(CNC(=O)Nc2cccs2)c1 | 0.398 µM [falling, full curve, poor fit]
48 | C(=N\c1c(-c2ccccc2)nc2n1CCS2)/c1ccccc1 | 4.47 µM [falling, full curve, poor fit]
49 | Cc1cc(/C=C2\SC(=S)NC2=O)c(C)n1C1CC1 | 31.6 µM [falling, single point]
50 | Cc1cc(-c2ccc(N=Nc3ccc4c(S(=O)(=O)O)cc(S(=O)(=O)O)c(N)c4c3O)c(C)c2)ccc1N=Nc1ccc2c(S(=O)(=O)O)cc(S(=O)(=O)O)c(N)c2c1O | 6.31 µM [falling, partial curve, poor fit]
51 | CCCOC(=O)c1c(N)sc2c1CCC2 | 7.94 µM [rising, partial curve, poor fit]
52 | CCn1ncc(Br)c1C(=O)Nc1cc(C(=O)OC)ccc1C(=O)OC | 31.6 µM [rising, single point]
53 | Cc1ccc(S(=O)(=O)N2CCCN(c3nc4cc(C)ccc4cc3C#N)CC2)cc1 | 31.6 µM [rising, single point]
54 | Cc1ccc(/C(N)=N/OC(=O)CCc2ccccc2)cc1 | 0.398 µM [rising, full curve, poor fit]
55 | CCN=C1SC(C(=O)NCCc2ccccc2)CC(=O)N1CC (configuration not stated) | 0.00501 µM [rising, full curve, poor fit]
56 | CCOc1ccc2nc(NCCCNS(=O)(=O)c3ccc(C)cc3)c(C#N)cc2c1 | 0.02 µM [falling, full curve]
57 | CN(c1ccccc1C(=O)O)S(C)(=O)=O | 31.6 µM [falling, single point]
58 | Cc1cc2nc(C)n(CCCNC(=O)Nc3ccccc3)c2cc1C | 10 µM [falling, partial curve]
59 | CC1CCC(C(C)C)C(OC(=O)COC(=O)c2ccc(=O)[nH]c2)C1 (configuration not stated) | 0.0316 µM [falling, full curve, poor fit]
60 | O=C(/C=C/c1ccc(O)c(O)c1)OC(Cc1ccc(O)c(O)c1)C(=O)O (configuration not stated) | 20 µM [falling, partial curve]
61 | CS(=O)(=O)N(CC(=O)NCCC1=CCCCC1)c1ccc2c(c1)OCO2 | 5.01 µM [rising, single point]
62 | Cc1ccc2[nH]c3c(c2c1)CN(C)CC3 | 25.1 µM [falling, single point]
63 | CCCCCOC(=O)C1=C(C)NC(=O)NC1c1ccccc1OCC (configuration not stated) | 2 µM [rising, single point]
64 | CCOC(=O)c1ccc2[nH]c3c(c2c1)CN(C)CC3 | 0.0794 µM [falling, full curve, poor fit]
65 | COc1ccc(-c2ccc(N)[n+](CCCC(=O)O)n2)cc1 | 6.31 µM [rising, single point]
66 | CCOc1ccccc1C(=O)Nc1cccc(-c2nnc(-c3ccccc3)o2)c1 | 0.0126 µM [rising, full curve, poor fit]
67 | Cc1ccc(NC(=O)Cn2nc(-c3ccc(Cl)cc3)c3ccccc3c2=O)cc1 | 14.1 µM [rising, partial curve]

— PubChem BioAssay AID901 (National Center for Advancing Translational Sciences (NCATS), 2007)
